Drawing on publication PMC7819943, “Rice protein-binding microarrays: a tool to detect cis-acting elements near promoter regions in rice”, this text covers binding signal for 54 sequences.

Protein sequences, listed by entry. Tags and fused reporters are not part of them.
UniProt Q0JBA9, entry or part of it: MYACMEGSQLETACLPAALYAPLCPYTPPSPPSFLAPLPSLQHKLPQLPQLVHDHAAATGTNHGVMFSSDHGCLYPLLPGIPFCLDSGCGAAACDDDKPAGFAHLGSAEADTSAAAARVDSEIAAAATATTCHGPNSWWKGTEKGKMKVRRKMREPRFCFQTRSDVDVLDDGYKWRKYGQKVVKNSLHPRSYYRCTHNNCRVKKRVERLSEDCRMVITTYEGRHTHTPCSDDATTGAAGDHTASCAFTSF

Some of the results follow.

The assay addresses OsWRKY34 (Oryza sativa, UniProt Q0JBA9 1-250). As to the kind of experiment: protein-binding microarray (RPBM); PBS, 2% BSA, 51.3 ng/ul salmon testes DNA, 50 uM zinc acetate, 200 nM TF, 25 C, 1 h; high values mean tight binding. Conditions: protein: recombinant; tags: N-terminal polyhistidine and DsRed monomer fusion (pET32a); label: CyDye5-dUTP incorporated in the synthesized complementary strand; 3' TTTTT single-stranded linker to array surface; dsDNA, one strand shown. The essentials:
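Polyhistidine-tagged DsRed fusions of transcription factors, joined at the N-terminus, were expressed in E. coli BL21-CodonPlus and isolated on Ni–NTA. They were incubated at 200 nM for 1 h at 25 °C on a custom Agilent array, double-stranded and BSA-blocked, in PBS with 2% BSA, salmon testes DNA and 50 µM zinc acetate. The binding signal is per-feature fluorescence intensity (arbitrary units) read on an Axon 4000B scanner after washing.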
Turning to “CTCGACTGTAACTGCGCTGGCCGCCTGGCCTCTTCAAGATCGGAGTCACCTAGTGCAG”, the binding signal was 11400 fluorescence intensity (a.u.).
Regarding “ATTGATGATTTTATCTGGTTTGTTCAGCAATTTTGCAAGACGGAGTCACCTAGTGCAG”, the binding signal is 8990 fluorescence intensity (a.u.).
The result for “ATCTGATTCCTCTCGAGACGGCGGATCCGAGCAATCTCTCCGGAGTCACCTAGTGCAG” reads 8600 fluorescence intensity (a.u.); that for “TCATCTTCACACCTCTCAATTAATTTATATTTCATTTCTCCGGAGTCACCTAGTGCAG”, 8750 fluorescence intensity (a.u.).
The result for “GGCGTCGGTGGTGGTGTGAATTGATAGAATTGATACGATGCGGAGTCACCTAGTGCAG” reads 8930 fluorescence intensity (a.u.); that for “GCATCTAGTCCATAGGGAATTTAGTTCGTTTTGTAGTTGACGGAGTCACCTAGTGCAG”, 8260 fluorescence intensity (a.u.); that for “TCCCCGCTCACTCACCCAGCCGCTCCCTCGGCTCGGCAGCCGGAGTCACCTAGTGCAG”, 8650 fluorescence intensity (a.u.).
The result for “CGCCTACATCCCGCCGTCCAACGACTCCGGCCTCACGCGGCGGAGTCACCTAGTGCAG” reads 8680 fluorescence intensity (a.u.); that for “CATACAGATATTCAAACATGGTGAAAAATTTTAGGGTGGGCGGAGTCACCTAGTGCAG”, 8120 fluorescence intensity (a.u.); that for “TTGCTTATCTAACTGTTCGTCTCACCTCACTGGTTTCTTCCGGAGTCACCTAGTGCAG”, 9950 fluorescence intensity (a.u.).
Regarding “CGCAAACTTCTGGGTTTAATGTAACCGTCTCATCTTTGTCCGGAGTCACCTAGTGCAG”, the binding signal was 8900 fluorescence intensity (a.u.).
For “TAGTGATATGCTACCTCTACACCAAAATAAGTCTATTTTTCGGAGTCACCTAGTGCAG” the value was 8310 fluorescence intensity (a.u.).
The result for “TTTCCTTTGCTCTCCTCGCTCCTCTTATCATCTCCTCCTACGGAGTCACCTAGTGCAG” reads 8780 fluorescence intensity (a.u.).
In the case of “CGACCGTATTGGGGATTGGGACGGATGGGTGTGGGATACACGGAGTCACCTAGTGCAG”, the binding signal was 8570 fluorescence intensity (a.u.).
For “CCTGTTTCTGACAACACCGCTGTTCGTTCCGCTAGCGACACGGAGTCACCTAGTGCAG” the value was 9530 fluorescence intensity (a.u.).
“AACAGCCTGCACTCGCACGTCCCGTCTTGCCTTGTCTCCGCGGAGTCACCTAGTGCAG”: the binding signal was 8800 fluorescence intensity (a.u.).
For “GCCGCCTGCCTCCTCGGCCGCGCGCTCACCTGCCGCTACCCGGAGTCACCTAGTGCAG” the value was 8450 fluorescence intensity (a.u.).
Regarding “CCATTATTGGACGCATTCCGTCAGCATCAACTGCCTCATCCGGAGTCACCTAGTGCAG”, the binding signal is 9100 fluorescence intensity (a.u.).
The result for “AATTACTCAAATTTCTTCCTGCCCCAAAATTTGTCAGTCACGGAGTCACCTAGTGCAG” reads 8180 fluorescence intensity (a.u.); that for “GTTTCTTTTTCTCCCCTGAATTTATCTACGTGTTCATGTACGGAGTCACCTAGTGCAG”, 8030 fluorescence intensity (a.u.); that for “GTTTTTGGTAGGGGTTAGTTTCGAAATAAGTTTTTGAAAACGGAGTCACCTAGTGCAG”, 9030 fluorescence intensity (a.u.).
For “GTCTGCCACCAACCCACTTCCTATTTGTCGCCGTCGCGGCCGGAGTCACCTAGTGCAG” the value was 11600 fluorescence intensity (a.u.).
The result for “AAGTCCTTCATTTTTCCTATGTTTCTCCTCCATTCCGAATCGGAGTCACCTAGTGCAG” reads 11400 fluorescence intensity (a.u.).
With “GGTTGGGAATGGCTGGCGGTTAATTCAATTTGCTGCTGACCGGAGTCACCTAGTGCAG”, the binding signal was 13000 fluorescence intensity (a.u.).
The result for “CCGCAAGGGTATTCTCGTAACTTGATCTCCTACCAAGCTACGGAGTCACCTAGTGCAG” reads 8080 fluorescence intensity (a.u.); that for “ATGAACATGAGGACCATCATATCCCTCATCCCAGATACATCGGAGTCACCTAGTGCAG”, 9380 fluorescence intensity (a.u.); that for “TTTATTTCTCATCTAGATTTACTAACGTTCATATAAATTTCGGAGTCACCTAGTGCAG”, 8240 fluorescence intensity (a.u.).
In the case of “CCTTGAATTTTGCCAAGTGCCATTCACCTTGTCTCTAGTCCGGAGTCACCTAGTGCAG”, the binding signal was 8680 fluorescence intensity (a.u.).
For “ACGTACTCTCTCACCTAATCAAAGGGATACTTGTGCTGTACGGAGTCACCTAGTGCAG” the value was 8730 fluorescence intensity (a.u.); for “ATATACATAAGCTTCTCGTGCACACACAAACTAACATAAACGGAGTCACCTAGTGCAG”, 8610 fluorescence intensity (a.u.).
The result for “GTAGTATTGCCTCGCCTAAGCCATCAACAACGTACAGTATCGGAGTCACCTAGTGCAG” reads 10100 fluorescence intensity (a.u.).
The result for “CCTGCTGGTTCGCTCAATTCATCACAGGTATGCTCCCATACGGAGTCACCTAGTGCAG” reads 8920 fluorescence intensity (a.u.); that for “ATATATATCTTCTCGTGTAGTTAATAAAATACTTATACACCGGAGTCACCTAGTGCAG”, 9030 fluorescence intensity (a.u.); that for “GGGCCGCTTTTTTGTGGGGTTAATGTTGTAGGAGTATTTGCGGAGTCACCTAGTGCAG”, 10700 fluorescence intensity (a.u.).
As to “AAAAACCTCAATGAATGGTGCCCTTATTCGTTTGTTTTCCCGGAGTCACCTAGTGCAG”, the binding signal was 10300 fluorescence intensity (a.u.).
For “GATCACATGACTTCCTTCTCGCGTTTACCTGATCGCTCTTCGGAGTCACCTAGTGCAG” the value was 8290 fluorescence intensity (a.u.).
For “GTGTTTTAGATGCCTTTCCTGTGGACCGTTCGATCCTGCACGGAGTCACCTAGTGCAG” the value was 9630 fluorescence intensity (a.u.).
Consider “CTCATATATCCTTTCGATGTTGTTCACACGTATTCCTTGCCGGAGTCACCTAGTGCAG”, for which the binding signal is 11000 fluorescence intensity (a.u.).
Take “GTCCACTGAACCATATTAATTCCAGTGATTAATCTCTTCTCGGAGTCACCTAGTGCAG”: the binding signal was 8950 fluorescence intensity (a.u.).
For “ACCACCGCGCCGCCGACTCCGCCCCACCACCCGTCGCCTCCGGAGTCACCTAGTGCAG” the value was 8760 fluorescence intensity (a.u.); for “TGTGTTGTTTTATATTCAAACTTGATTACCCCGTAGTCAGCGGAGTCACCTAGTGCAG”, 8070 fluorescence intensity (a.u.); for “TTATCATTCTTCTCCACCTTGTTCCTGTTGTTGCGTCTACCGGAGTCACCTAGTGCAG”, 16100 fluorescence intensity (a.u.).
For “CGTATATATTCTTTCCGACCTGGGCCCTGCAAAATTCCTTCGGAGTCACCTAGTGCAG”, the binding signal was 10400 fluorescence intensity (a.u.).
As for “TCGTTATGCCTTTTGGTTTGGTTTATCCCTTCCTCTTGAACGGAGTCACCTAGTGCAG”, the binding signal was 10100 fluorescence intensity (a.u.).
“TATGGAATTATTATTTATTTTGTTTGTAACTTGCTTTATTCGGAGTCACCTAGTGCAG”: the binding signal was 9260 fluorescence intensity (a.u.).
With “TATTTCCATACCGCTCGCCCGCTCTTTTTTCCGAAATCAGCGGAGTCACCTAGTGCAG”, the binding signal is 9770 fluorescence intensity (a.u.).
For “TCATCCGCACCAACACCATTAGTTATATTACCCACACATCCGGAGTCACCTAGTGCAG” the value was 8520 fluorescence intensity (a.u.); for “TCCACCACACACACGCCAGTCGCCGCCGGCTTTTGCTTCCCGGAGTCACCTAGTGCAG”, 9750 fluorescence intensity (a.u.); for “AGGTGGCGAGCAGAGCAGGGGAGGGGAGGGGATCCTGCAGCGGAGTCACCTAGTGCAG”, 12600 fluorescence intensity (a.u.).
The result for “TCTCATTGCACCTTGGTTCTTATCATACTATGCTACCCAACGGAGTCACCTAGTGCAG” reads 8060 fluorescence intensity (a.u.).
With “CCATCACTCGATTTTTCTCATTTTTGACTCTAAAGCTTATCGGAGTCACCTAGTGCAG”, the binding signal is 8380 fluorescence intensity (a.u.).
With “GGGGAGGGAGAGGCCACGTCGTCAGCCAGCCAGCCATTTCCGGAGTCACCTAGTGCAG”, the binding signal was 10500 fluorescence intensity (a.u.).
For “ATATGGTTGTTGCTTTGACTTAATATCTTAATTGGTATTCCGGAGTCACCTAGTGCAG” the value was 11300 fluorescence intensity (a.u.).
On to “TCCACTTTTACCTTCCATTCATTTGACGACTGAGACTAAGCGGAGTCACCTAGTGCAG”, for which the binding signal is 8430 fluorescence intensity (a.u.).
